Read-outs that look alike come from different tables or passages of the source. No constants are given. Whether binding was seen depends on the method and setting. Binding seen in cells or lysates may run through a third protein. A yes stands for co-enrichment or nearness to the bait. Other partners may have been found. For some of these results: Tags and fused reporters may be left off the sequences shown. Each block holds one molecule with its values, some of them ahead of it.
Key:
Assay in all cases: proximity labelling
[1] = molecular target: T1, Trbo-TTC1 (human) (UniProt Q99614)
T1 sequence: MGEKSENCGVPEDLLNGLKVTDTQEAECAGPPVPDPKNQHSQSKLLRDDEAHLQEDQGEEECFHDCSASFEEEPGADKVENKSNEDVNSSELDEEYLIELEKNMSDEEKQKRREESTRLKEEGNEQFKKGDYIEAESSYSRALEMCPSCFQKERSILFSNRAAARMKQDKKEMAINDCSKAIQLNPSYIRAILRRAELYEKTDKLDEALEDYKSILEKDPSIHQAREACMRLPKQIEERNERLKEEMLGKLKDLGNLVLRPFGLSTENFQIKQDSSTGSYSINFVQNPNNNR

Protein sequences, listed by entry. Tags and fused reporters are not part of them.
UniProt Q8TD16: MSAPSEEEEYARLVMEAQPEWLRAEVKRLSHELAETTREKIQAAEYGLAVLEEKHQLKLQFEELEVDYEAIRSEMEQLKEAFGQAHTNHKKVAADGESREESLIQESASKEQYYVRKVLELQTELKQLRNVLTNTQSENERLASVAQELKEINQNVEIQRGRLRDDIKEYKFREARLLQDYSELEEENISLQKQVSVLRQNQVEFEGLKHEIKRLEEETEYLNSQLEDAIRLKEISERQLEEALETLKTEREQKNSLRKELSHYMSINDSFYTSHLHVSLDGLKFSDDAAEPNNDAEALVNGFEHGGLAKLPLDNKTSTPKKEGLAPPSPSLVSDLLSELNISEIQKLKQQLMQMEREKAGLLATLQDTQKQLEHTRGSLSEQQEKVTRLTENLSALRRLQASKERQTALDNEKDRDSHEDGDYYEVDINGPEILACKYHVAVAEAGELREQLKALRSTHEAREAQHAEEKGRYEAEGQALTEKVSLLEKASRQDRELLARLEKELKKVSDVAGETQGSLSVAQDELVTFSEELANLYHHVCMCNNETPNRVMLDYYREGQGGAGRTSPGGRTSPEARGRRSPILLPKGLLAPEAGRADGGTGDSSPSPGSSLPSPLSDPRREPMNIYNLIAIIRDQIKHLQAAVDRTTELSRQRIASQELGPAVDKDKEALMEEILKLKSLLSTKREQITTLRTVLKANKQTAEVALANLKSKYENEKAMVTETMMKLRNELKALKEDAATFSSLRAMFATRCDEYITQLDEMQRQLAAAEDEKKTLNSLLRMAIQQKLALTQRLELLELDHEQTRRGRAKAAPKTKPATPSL
UniProt P02828: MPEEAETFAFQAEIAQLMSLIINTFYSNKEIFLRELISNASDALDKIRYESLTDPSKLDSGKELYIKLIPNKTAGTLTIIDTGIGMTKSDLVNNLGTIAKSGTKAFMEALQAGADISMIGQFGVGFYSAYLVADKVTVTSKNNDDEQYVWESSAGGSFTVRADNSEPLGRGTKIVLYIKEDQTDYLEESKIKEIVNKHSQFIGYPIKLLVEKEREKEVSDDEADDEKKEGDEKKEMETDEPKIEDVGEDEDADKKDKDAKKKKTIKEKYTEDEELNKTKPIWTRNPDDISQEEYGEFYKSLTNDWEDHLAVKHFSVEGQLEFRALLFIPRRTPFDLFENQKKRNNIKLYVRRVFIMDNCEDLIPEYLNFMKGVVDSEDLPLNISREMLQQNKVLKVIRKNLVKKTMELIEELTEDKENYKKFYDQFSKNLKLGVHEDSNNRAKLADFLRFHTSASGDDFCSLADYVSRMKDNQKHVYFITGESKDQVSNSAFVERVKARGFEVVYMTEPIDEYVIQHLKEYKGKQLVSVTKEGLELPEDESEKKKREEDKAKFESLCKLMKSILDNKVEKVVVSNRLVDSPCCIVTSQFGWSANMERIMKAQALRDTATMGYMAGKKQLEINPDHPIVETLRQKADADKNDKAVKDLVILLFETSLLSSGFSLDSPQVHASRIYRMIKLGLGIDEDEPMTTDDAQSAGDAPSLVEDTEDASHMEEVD
UniProt Q24117: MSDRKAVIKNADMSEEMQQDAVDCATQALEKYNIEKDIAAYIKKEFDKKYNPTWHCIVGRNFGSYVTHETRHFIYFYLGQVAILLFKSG
UniProt P37276: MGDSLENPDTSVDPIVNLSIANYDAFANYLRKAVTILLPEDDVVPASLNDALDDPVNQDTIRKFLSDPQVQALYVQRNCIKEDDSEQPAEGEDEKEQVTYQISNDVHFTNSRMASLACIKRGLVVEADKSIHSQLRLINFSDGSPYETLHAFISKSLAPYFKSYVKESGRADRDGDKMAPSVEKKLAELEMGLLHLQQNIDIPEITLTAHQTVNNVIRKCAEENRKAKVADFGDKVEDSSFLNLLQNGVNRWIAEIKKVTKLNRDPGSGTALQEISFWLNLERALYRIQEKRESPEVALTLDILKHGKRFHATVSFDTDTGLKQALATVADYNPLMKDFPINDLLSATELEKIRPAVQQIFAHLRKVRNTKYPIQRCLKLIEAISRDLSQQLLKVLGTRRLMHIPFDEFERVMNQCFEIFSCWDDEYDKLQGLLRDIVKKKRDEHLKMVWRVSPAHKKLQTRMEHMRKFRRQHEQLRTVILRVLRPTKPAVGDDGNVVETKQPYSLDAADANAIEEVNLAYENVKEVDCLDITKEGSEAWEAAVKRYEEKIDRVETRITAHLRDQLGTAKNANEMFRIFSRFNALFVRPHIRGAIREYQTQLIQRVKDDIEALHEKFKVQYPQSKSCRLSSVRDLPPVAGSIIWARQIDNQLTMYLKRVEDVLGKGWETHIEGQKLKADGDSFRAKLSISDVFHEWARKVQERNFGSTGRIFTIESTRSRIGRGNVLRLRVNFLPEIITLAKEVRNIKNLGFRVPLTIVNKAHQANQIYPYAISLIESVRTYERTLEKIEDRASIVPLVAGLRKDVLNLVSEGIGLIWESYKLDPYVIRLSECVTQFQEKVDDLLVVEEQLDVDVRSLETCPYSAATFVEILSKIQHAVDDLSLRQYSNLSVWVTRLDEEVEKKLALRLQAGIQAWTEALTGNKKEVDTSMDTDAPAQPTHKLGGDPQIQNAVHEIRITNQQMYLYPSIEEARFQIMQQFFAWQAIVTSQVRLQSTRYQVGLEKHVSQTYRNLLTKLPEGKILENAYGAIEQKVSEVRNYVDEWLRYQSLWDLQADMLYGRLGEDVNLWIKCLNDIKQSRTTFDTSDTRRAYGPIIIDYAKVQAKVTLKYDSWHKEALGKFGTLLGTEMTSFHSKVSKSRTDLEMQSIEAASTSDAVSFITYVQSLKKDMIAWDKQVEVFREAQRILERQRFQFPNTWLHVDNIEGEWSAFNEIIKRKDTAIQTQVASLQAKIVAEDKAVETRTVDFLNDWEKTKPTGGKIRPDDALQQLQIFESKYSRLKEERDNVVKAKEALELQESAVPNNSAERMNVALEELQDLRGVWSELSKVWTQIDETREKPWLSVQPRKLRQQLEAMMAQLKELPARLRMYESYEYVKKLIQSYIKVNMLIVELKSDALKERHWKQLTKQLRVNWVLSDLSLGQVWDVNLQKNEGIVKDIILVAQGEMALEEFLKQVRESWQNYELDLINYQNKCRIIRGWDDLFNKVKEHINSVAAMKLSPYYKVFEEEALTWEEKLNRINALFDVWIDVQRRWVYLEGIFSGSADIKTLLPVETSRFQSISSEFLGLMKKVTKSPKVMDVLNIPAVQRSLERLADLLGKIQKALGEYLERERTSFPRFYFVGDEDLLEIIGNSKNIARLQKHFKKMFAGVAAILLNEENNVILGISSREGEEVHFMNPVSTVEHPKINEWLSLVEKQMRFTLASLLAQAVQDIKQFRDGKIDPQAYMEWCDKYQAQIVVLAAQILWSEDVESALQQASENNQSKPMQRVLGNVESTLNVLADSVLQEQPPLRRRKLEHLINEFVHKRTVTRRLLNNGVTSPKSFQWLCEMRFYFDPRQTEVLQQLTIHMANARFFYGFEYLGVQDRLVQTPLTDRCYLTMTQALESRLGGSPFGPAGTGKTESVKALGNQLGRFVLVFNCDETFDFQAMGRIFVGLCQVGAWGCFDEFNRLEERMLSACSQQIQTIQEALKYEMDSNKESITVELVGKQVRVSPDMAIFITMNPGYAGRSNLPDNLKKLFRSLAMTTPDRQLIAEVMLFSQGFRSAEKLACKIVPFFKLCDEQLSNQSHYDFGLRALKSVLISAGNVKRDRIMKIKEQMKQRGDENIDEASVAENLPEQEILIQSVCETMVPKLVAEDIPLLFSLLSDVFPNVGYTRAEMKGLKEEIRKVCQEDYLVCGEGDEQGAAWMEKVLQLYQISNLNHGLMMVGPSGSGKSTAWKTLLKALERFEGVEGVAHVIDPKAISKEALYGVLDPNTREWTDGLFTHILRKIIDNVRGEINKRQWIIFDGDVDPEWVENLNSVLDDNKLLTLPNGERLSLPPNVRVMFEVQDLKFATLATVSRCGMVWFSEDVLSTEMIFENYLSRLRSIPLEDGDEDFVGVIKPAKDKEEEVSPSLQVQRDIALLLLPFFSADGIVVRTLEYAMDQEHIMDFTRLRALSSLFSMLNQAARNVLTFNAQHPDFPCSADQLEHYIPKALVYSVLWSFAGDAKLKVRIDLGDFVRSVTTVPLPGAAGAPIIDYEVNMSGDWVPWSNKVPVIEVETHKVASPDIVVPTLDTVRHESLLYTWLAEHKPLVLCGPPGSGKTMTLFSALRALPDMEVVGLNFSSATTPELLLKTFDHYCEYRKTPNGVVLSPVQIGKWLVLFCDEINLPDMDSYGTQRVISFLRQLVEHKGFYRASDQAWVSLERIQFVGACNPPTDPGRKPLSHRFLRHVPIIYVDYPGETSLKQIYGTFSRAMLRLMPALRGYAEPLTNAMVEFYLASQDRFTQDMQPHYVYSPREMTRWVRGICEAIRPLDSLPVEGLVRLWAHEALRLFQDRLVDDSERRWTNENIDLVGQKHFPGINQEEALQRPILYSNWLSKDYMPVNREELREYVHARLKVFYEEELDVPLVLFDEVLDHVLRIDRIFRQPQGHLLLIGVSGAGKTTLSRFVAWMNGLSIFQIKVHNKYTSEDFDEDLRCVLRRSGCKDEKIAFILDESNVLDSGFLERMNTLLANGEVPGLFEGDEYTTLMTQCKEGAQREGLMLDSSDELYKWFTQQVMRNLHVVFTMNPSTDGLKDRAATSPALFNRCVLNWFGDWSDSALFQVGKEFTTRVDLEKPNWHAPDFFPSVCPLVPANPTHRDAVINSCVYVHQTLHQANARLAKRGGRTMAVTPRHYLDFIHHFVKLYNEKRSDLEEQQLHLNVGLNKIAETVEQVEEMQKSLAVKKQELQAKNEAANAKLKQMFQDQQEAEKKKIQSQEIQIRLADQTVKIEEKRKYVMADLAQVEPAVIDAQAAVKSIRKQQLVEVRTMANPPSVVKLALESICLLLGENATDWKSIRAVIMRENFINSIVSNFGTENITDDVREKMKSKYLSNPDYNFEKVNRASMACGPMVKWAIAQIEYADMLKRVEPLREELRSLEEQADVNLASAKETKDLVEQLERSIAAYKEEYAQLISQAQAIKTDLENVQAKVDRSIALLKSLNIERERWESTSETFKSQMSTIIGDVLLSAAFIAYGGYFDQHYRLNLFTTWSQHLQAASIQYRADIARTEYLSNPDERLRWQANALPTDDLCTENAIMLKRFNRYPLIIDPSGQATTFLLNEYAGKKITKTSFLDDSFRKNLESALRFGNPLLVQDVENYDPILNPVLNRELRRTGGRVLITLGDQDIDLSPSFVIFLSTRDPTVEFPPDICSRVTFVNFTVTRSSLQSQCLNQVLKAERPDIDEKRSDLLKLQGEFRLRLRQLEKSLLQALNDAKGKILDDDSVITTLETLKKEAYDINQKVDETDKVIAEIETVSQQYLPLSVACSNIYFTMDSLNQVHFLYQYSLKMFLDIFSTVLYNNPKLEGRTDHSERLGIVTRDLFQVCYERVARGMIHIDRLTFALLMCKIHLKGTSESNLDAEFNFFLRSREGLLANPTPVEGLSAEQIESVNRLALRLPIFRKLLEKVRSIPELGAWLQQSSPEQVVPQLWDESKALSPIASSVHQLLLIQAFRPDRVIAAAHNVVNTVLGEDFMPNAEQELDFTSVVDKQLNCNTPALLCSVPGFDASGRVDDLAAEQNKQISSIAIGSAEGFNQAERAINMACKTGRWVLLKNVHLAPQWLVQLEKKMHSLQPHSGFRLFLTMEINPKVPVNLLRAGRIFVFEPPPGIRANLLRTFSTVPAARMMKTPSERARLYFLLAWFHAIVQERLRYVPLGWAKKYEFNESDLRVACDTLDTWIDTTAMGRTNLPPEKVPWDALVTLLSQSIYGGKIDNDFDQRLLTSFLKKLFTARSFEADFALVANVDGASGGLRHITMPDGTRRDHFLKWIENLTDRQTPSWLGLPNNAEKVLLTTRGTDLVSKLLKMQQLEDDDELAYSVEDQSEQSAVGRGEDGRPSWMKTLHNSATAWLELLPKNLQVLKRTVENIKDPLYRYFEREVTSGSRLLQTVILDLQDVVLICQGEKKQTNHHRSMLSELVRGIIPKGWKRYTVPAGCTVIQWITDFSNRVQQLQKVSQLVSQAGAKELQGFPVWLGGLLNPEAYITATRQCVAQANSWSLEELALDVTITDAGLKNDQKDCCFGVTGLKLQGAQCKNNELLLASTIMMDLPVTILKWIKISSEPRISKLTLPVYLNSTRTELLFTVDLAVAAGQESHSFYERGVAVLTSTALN

[2] = molecular target: GFP-dTtc1 (Drosophila melanogaster) (UniProt Q9VEV3)
[3] = molecular target: T2, GFP-Me31b (Drosophila melanogaster) (UniProt P23128)
T2 sequence: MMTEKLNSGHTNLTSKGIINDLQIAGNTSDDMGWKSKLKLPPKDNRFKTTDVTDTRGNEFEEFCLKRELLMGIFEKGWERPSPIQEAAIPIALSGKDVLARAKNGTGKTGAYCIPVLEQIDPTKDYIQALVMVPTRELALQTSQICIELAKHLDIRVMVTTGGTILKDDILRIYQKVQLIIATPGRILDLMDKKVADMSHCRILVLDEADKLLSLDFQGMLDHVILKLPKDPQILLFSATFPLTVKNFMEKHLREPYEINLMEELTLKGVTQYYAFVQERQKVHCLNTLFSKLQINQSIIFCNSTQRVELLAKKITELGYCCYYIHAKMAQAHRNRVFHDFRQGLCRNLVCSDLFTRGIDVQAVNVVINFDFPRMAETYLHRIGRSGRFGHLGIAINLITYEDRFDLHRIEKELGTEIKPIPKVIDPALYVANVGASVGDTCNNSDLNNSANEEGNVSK

[4] = molecular target: T3, Egalitarian tagged at its C-terminal end with TurboID (Egl-Trbo) (Drosophila melanogaster) (UniProt Q9W1K4)
T3 sequence: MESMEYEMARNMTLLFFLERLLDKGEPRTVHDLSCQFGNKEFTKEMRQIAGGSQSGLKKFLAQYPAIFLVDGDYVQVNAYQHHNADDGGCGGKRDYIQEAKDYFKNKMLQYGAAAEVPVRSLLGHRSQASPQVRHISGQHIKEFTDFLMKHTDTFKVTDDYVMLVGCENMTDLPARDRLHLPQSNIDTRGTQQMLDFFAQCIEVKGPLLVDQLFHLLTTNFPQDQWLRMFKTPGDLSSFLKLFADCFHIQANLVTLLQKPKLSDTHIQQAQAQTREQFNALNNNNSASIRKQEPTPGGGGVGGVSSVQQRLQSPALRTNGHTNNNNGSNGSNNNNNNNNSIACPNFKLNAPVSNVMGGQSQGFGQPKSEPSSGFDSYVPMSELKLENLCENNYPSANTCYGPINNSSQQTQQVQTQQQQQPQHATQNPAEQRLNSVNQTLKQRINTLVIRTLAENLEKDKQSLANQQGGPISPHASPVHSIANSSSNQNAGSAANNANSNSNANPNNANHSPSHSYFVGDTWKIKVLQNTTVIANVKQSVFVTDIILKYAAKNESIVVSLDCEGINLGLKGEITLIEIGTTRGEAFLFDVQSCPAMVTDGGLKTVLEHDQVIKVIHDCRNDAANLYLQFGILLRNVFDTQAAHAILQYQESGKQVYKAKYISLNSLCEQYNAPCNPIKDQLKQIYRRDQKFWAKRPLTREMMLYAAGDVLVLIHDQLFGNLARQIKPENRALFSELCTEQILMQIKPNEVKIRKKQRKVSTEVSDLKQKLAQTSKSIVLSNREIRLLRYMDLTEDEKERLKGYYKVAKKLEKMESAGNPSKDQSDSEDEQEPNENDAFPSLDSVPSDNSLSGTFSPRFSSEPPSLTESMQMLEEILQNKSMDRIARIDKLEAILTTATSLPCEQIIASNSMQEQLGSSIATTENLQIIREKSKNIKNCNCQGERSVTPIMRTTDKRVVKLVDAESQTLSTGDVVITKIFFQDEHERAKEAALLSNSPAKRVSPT

[5] = molecular target: T3, Egalitarian tagged at its C-terminal end with TurboID (Egl-Trbo) (Drosophila melanogaster); remark: listed apart in the source
[6] = molecular target: GFP-dTtc1 (Drosophila melanogaster) (UniProt Q9VEV3); remark: listed apart in the source

Molecule: BicD2 (from UniProt Q8TD16 1-824)
binding [1]: binds

Molecule: Hsp83 (from UniProt P02828 1-717)
binding [2]: binds

Molecule: Dynein light chain (Dlc) (from UniProt Q24117 1-89)
binding [4]: binds

Molecule: Dynein heavy chain (Dhc) (from UniProt P37276 1-4639)
binding [4]: binds

Molecule: dTtc1 (CG14894) (from UniProt Q9VEV3)
binding [4]: binds

Continued, values first:

binding [3]: binds
Molecule: Egalitarian (Egl) (from UniProt Q9W1K4 1-1004)

binding [4]: binds
Molecule: Clathin heavy chain (Chc) (from UniProt P29742 1-1678)

binding [5]: binds
B1: Me31b (protein, UniProt P23128 1-459)
chain: T2 sequence

binding [5]: binds
binding [6]: binds
B2: Vap33 (protein, UniProt Q9W4N8 1-269)
chain: MSKSLFDLPLTIEPEHELRFVGPFTRPVVTIMTLRNNSALPLVFKIKTTAPKRYCVRPNIGKIIPFRSTQVEICLQPFVYDQQEKNKHKFMVQSVLAPMDADLSDLNKLWKDLEPEQLMDAKLKCVFEMPTAEANAENTSGGGAVGGGTGAAGGGSAGANTSSASAEALESKPKLSSEDKFKPSNLLETSESLDLLSGEIKALRECNIELRRENLHLKDQITRFRSSPAVKQVNEPYAPVLAEKQIPVFYIAVAIAAAIVSLLLGKFFL

— paper doi:10.1101/2021.07.01.450794
